The target in this test is glucose-regulated protein 78 (GRP78) (human (endogenous in Hs578T)) (UniProt P11021). The test can be described thus: co-IP; Hs578T cell extract (500 ug lysate) incubated overnight with 2 ug GRP78 antibody at 4 °C, anti-mouse IgG, Protein A/G PLUS-Agarose, washed 5x with lysis buffer; blotted for GRP78 and IGFBP-3; control IgG in parallel; endogenous proteins at basal levels.

Amino acid sequences for entries named in this document (tags omitted). Residues count along the entry.
UniProt P11021, residues 19-654: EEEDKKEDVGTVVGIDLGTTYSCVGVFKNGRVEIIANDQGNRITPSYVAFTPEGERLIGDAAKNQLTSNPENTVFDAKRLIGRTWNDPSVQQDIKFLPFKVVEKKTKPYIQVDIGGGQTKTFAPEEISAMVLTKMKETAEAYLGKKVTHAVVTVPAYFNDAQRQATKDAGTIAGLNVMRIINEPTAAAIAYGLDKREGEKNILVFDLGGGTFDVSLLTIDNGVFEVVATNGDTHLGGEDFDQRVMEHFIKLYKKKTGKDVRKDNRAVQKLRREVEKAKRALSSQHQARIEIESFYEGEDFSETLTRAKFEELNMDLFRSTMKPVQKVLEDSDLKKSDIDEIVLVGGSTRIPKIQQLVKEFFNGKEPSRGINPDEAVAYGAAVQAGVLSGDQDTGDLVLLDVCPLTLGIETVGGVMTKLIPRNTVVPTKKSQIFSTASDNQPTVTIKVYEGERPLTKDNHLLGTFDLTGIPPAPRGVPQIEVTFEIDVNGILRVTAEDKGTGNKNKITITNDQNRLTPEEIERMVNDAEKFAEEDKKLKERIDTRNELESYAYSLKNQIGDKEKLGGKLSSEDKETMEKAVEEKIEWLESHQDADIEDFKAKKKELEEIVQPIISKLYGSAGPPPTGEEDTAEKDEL
UniProt P17936, residues 28-291: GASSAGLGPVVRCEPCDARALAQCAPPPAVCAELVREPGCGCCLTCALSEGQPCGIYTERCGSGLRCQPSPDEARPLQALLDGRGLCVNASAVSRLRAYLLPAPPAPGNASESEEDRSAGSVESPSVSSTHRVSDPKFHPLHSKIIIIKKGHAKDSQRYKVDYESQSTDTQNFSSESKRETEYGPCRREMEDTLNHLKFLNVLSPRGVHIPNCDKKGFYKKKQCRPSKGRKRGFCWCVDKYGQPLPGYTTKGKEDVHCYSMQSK

These are yes or no findings as the source states them, for the method shown. In cells and extracts the contact can be indirect. Some results given as binding are weak or reduced against the parent protein; the word gives no strength.

Regarding “insulin-like growth factor binding protein 3 (IGFBP-3) (from UniProt P17936 28-291)”, the binding result is recorded as “binds”.

Values taken from publication PMC7767108.
